# The other results are listed elsewhere or left out.
# Sequences of proteins named here, by UniProt entry; tags and fusion partners are left off. A change or cut given only in a name is not applied to a line headed by its entry.
# UniProt Q16854: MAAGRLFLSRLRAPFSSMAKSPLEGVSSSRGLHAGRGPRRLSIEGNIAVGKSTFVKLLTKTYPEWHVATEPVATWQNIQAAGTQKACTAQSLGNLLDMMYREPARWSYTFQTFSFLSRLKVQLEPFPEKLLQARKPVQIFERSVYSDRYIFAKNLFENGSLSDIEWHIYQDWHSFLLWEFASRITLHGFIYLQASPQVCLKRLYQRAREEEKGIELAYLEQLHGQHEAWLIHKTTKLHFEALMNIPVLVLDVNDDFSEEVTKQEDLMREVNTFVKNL
# UniProt Q13268: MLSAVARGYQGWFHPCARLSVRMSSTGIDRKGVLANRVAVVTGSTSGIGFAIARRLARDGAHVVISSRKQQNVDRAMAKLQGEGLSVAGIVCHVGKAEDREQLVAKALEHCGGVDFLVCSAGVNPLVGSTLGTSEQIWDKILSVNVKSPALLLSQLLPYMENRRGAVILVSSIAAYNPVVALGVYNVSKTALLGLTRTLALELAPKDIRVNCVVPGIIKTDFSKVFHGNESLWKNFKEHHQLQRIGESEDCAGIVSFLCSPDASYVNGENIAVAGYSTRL
# UniProt Q9NR28: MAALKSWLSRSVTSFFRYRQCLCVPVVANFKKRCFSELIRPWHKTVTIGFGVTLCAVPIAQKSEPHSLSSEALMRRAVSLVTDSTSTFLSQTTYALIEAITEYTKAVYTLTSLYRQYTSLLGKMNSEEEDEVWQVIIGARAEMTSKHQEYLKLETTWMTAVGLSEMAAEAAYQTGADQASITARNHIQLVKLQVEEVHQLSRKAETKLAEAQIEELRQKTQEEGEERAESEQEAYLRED
# UniProt Q9BY27: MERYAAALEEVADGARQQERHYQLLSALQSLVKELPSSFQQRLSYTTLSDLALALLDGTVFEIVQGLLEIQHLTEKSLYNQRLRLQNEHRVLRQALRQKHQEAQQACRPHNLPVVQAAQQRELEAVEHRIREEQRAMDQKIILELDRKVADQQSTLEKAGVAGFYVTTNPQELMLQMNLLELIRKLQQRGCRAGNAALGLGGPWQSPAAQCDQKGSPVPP
# UniProt Q7L7V1: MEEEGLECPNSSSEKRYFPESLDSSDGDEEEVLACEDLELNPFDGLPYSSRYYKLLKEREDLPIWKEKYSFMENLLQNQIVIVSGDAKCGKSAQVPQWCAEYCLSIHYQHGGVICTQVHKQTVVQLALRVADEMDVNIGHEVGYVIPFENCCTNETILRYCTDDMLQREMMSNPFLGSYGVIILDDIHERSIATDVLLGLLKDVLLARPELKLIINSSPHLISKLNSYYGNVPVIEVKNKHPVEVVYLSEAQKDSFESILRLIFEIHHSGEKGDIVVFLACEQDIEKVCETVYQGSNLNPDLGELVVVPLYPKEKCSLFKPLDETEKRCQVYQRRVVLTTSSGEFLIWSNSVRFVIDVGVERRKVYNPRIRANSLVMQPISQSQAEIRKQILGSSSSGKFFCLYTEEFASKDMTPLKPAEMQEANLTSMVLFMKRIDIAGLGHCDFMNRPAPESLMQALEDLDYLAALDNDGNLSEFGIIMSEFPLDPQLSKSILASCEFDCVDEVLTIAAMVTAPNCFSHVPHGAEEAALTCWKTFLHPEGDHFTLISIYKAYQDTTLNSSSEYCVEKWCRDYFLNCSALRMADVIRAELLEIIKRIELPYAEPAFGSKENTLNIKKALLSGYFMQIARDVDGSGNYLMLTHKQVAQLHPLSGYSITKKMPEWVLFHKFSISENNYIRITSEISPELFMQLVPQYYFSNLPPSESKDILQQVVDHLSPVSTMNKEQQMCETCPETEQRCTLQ
# UniProt Q96GE9: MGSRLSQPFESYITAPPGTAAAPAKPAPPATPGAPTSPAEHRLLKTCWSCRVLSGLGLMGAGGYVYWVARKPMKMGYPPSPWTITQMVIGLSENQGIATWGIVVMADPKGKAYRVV
# UniProt Q6Y2X3: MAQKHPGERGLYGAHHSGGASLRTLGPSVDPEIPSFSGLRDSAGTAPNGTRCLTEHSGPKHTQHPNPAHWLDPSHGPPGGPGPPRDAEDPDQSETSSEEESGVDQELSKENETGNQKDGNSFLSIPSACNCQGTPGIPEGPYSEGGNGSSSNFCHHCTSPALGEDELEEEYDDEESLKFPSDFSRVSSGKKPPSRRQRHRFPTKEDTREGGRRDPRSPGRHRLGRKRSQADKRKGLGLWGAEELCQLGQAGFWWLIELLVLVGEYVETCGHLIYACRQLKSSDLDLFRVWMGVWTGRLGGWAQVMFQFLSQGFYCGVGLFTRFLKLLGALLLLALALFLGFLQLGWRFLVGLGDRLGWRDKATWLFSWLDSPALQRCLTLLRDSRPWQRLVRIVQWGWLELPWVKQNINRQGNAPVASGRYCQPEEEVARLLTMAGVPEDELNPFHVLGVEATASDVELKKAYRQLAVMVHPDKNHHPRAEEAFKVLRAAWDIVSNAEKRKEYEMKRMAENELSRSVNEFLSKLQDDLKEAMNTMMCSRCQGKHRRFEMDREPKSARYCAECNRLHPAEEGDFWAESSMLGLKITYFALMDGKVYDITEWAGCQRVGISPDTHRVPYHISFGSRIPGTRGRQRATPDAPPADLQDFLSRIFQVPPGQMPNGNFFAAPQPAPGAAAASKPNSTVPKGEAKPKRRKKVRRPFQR
# UniProt O60496: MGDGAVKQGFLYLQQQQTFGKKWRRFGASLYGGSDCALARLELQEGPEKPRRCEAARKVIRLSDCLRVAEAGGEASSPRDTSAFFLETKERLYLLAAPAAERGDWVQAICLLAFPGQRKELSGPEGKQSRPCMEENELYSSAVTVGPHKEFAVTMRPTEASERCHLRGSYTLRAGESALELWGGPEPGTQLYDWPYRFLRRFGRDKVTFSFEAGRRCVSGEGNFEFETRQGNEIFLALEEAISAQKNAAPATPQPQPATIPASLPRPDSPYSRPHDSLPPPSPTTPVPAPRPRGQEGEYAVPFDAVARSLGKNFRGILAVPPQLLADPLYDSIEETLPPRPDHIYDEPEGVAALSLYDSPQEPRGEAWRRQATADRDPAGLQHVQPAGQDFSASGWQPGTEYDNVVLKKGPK
# UniProt Q8TEK3: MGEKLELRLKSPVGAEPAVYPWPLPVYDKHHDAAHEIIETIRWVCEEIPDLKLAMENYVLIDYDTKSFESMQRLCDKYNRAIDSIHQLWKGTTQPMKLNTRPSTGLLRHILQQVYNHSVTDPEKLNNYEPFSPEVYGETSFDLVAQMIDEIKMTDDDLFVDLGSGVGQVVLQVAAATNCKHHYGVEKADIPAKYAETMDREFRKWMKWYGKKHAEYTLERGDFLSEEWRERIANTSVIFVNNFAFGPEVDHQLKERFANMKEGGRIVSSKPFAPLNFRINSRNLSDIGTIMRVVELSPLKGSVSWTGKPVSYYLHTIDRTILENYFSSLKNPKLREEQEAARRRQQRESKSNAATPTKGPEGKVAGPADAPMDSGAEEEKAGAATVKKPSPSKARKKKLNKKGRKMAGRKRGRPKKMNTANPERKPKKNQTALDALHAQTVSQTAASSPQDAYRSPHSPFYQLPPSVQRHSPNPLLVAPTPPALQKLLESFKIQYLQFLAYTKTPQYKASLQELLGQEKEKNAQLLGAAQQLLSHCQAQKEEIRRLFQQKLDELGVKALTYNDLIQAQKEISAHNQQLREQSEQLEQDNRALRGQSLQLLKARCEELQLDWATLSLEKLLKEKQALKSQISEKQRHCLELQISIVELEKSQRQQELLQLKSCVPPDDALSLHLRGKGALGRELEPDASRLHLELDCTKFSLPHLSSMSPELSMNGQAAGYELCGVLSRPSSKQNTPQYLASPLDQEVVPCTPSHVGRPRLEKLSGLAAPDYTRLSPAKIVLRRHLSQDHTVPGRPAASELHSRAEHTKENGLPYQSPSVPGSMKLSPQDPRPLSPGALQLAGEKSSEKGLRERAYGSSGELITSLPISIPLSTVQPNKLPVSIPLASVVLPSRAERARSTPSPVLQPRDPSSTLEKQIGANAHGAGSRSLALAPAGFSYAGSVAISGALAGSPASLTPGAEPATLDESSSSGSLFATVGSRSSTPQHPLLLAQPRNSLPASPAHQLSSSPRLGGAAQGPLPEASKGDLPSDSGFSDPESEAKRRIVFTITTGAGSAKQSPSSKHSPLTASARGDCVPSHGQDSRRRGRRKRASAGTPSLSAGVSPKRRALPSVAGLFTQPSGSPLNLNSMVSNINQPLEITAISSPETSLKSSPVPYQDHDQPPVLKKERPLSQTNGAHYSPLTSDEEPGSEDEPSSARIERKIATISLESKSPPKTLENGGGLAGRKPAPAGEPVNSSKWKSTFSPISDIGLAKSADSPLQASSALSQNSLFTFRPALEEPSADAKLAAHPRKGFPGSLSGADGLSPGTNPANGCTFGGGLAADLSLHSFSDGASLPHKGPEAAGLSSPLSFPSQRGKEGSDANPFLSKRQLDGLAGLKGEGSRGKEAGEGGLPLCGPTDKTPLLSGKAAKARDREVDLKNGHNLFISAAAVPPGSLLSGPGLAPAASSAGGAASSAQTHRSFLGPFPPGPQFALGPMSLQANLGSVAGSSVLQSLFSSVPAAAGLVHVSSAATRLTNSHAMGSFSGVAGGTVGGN
# UniProt Q5SXM8: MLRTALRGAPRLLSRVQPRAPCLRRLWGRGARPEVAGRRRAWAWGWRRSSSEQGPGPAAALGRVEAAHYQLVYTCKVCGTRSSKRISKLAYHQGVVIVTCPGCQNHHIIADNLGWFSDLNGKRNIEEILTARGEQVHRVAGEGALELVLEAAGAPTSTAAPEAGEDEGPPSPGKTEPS
# UniProt P52824: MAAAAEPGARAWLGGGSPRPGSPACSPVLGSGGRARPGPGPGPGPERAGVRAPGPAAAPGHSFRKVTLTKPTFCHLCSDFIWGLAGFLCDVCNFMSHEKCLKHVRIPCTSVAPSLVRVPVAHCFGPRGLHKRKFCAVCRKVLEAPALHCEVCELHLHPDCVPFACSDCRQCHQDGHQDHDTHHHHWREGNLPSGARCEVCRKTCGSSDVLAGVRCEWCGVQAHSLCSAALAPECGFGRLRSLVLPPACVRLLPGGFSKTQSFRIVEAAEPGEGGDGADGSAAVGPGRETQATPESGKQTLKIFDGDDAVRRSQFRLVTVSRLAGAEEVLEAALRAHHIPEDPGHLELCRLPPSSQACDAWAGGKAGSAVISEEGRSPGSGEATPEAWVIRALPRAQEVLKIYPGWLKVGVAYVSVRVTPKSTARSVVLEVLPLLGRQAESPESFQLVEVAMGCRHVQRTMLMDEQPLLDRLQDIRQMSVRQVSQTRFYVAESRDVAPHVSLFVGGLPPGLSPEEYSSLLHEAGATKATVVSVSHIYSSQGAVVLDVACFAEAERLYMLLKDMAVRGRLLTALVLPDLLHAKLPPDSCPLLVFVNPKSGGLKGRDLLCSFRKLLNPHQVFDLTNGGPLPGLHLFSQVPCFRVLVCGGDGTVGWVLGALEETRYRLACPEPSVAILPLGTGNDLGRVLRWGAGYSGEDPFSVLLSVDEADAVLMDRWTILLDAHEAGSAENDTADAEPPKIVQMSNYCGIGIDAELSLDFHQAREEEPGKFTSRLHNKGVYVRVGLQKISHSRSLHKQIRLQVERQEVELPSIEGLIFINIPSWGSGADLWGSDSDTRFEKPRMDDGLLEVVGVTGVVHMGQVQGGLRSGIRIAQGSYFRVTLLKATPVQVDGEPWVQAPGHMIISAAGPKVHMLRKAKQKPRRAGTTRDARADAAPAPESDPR
# Assays:
# Assay in all cases: log2 fold change, soluble protein after heating vs DMSO (PISA); higher = thermal stabilisation; K562 lysate, 10 uM; active = over 0.2 and 3.5 SD of the protein, either way, in both replicates (recomputed)
# [1] = compound: C1=CC=C(C=C1)[C@H](COC2=CC3=C(C=C2)NC(=O)N3)NC(=O)C4=CC=CN(C4=O)CC5=CC(=C(C=C5)F)F
# In short: (§1)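 Soluble protein was defined as the supernatant remaining after 21,000xg for 90 min, following pooling of heated aliquots and adjustment to 0.5% NP-40 at 4°C. Before that, crude K562 extract at 1 mg/mL protein in PBS pH 7.4 with 1 mM MgCl2 was treated with 10 μM compound for 30 min and heated for 3 min across 48°C-58°C. Quantification used TMTpro 16plex LC-MS/MS with channel sums equalised, and values are log-two fold changes in thermal stability relative to solvent controls from duplicates.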
# [2] = compound: CC1=C(SC2=C1C(=N[C@H](C3=NN=C(N32)C)CC(=O)N)C4=CC=C(C=C4)Cl)C
# In short: as §1
# [3] = compound: Cc1sc2c(c1C)C(c1ccc(Cl)cc1)=N[C@@H](CC(=O)OC(C)(C)C)c1nnc(C)n1-2
# In short: as §1
# [4] = compound: c1ccc([C@@H]2C[C@H]2NC2CCNCC2)cc1
# In short: as §1
# [5] = compound: CC1=C2C(=CC=C1)N=C(N(C2=O)C3=CC=CC=C3C)CN4C=NC5=C(N=CN=C54)N
# In short: as §1
Target,log2 fold change [1],log2 fold change [2],log2 fold change [3],log2 fold change [4],log2 fold change [5]
DONSON (UniProt Q9NYP3),inactive: -0.043,inactive: 0.068,inactive: 0.013,inactive: -0.243,
DHX40 (UniProt Q8IX18),inactive: 0.015,inactive: 0.02,inactive: -0.02,inactive: 0.016,inactive: 0.063
DGUOK (UniProt Q16854),inactive: 0.001,inactive: 0.032,inactive: -0.011,inactive: -0.021,inactive: -0.095
DNAJB4 (UniProt Q9UDY4),inactive: -0.04,inactive: 0.006,inactive: -0.005,inactive: 0.031,inactive: 0.022
DNAJC2 (UniProt Q99543),inactive: 0.049,inactive: -0.003,inactive: 0.051,inactive: 0.086,inactive: -0.015
DIAPH1 (UniProt H9KV28),inactive: 0.009,inactive: 0.023,,inactive: -0.117,inactive: 0.007
DHRS2 (UniProt Q13268),inactive: -0.046,inactive: 0.068,inactive: 0.045,inactive: 0.006,inactive: -0.003
DNAJA3 (UniProt Q96EY1),inactive: -0.033,inactive: -0.007,inactive: 0.017,inactive: 0.038,inactive: 0.006
DIABLO (UniProt Q9NR28),inactive: -0.002,inactive: -0.061,inactive: -0.061,inactive: -0.002,inactive: -0.002
DHRS4L1 (UniProt P0CG22),inactive: -0.012,inactive: -0.075,inactive: -0.337,inactive: 0.013,inactive: -0.009
DNAJC24 (UniProt Q6P3W2),,,inactive: 0.024,inactive: 0.055,inactive: 0.007
DGKE (UniProt P52429),,,inactive: 0.043,inactive: -0.17,inactive: 0.709
DNMT3A (UniProt Q9Y6K1),,,,inactive: -0.1,
DGCR6L (UniProt Q9BY27),,,,inactive: -0.017,
DHX33 (UniProt Q9H6R0),,,inactive: 0.213,inactive: 0.229,
DHTKD1 (UniProt Q96HY7),inactive: 0.032,inactive: -0.2,,inactive: 0.048,
DHX32 (UniProt Q7L7V1),,,,inactive: -0.009,inactive: -0.086
DNPEP (UniProt B9ZVU2),,,inactive: -0.063,,
DMAC1 (UniProt Q96GE9),,,,inactive: -0.024,inactive: -0.003
DMBT1 isoform 6 (UniProt Q9UGM3),,,,inactive: 0.087,inactive: 0.785
DGCR2 (UniProt P98153),,,inactive: 0.042,inactive: 0.015,inactive: -0.056
DNAJC14 (UniProt Q6Y2X3),,,inactive: 0.252,,

Target,log2 fold change [1],log2 fold change [2],log2 fold change [3],log2 fold change [4],log2 fold change [5]
DNASE1L1 (UniProt P49184),,,,inactive: -0.193,
DHPS (UniProt M0R1T2),,,,inactive: -0.274,
DOK2 (UniProt O60496),,,,inactive: -0.146,
DMTN isoform 2 (UniProt Q08495),,,inactive: 0.019,inactive: 0.087,inactive: 0.039
DNMT3B (UniProt Q9UBC3),,,,,inactive: -0.066
DNAJB9 (UniProt Q9UBS3),,,inactive: 0.06,,
DOT1L isoform 1 (UniProt Q8TEK3),,,inactive: 0.074,,inactive: 0
DNA2 (UniProt P51530),,,inactive: 0.072,inactive: 0.026,inactive: 0.047
DOP1B (UniProt Q9Y3R5),,,,inactive: -0.164,inactive: 0.071
DNLZ (UniProt Q5SXM8),,,,inactive: -0.135,
DNTTIP1 (UniProt Q9H147),,,inactive: 0.012,inactive: 0.158,inactive: 0.004
DOCK2 (UniProt Q92608),,,inactive: -0.055,inactive: -0.045,inactive: 0.004
DNAJB1 (UniProt M0R128),inactive: -0.25,inactive: 0.269,,inactive: -0.326,
DNMT1 (UniProt P26358),inactive: 0.096,inactive: -0.058,,inactive: 0.091,
DOLK (UniProt Q9UPQ8),,,,inactive: -0.038,
DGKQ (UniProt P52824),,,inactive: -0.143,inactive: -0.044,inactive: 0
DNAJB14 (UniProt H7C494),,,,inactive: -0.087,
DNM2 isoform 4 (UniProt P50570),,,inactive: 0.025,inactive: -0.043,
DHRSX (UniProt Q8N5I4),,,inactive: -0.064,,inactive: 0.006
"DOCK11, A0A0J9YW64",inactive: 0.032,inactive: 0.011,,inactive: 0.077,
DOCK6 (UniProt Q96HP0),,,inactive: 0.117,,

# Look-ups from above.
# DNAJB14 (UniProt H7C494) – log2 fold change [4]: inactive: -0.087
# DNASE1L1 (UniProt P49184) – log2 fold change [4]: inactive: -0.193
# DGUOK (UniProt Q16854) – log2 fold change [4]: inactive: -0.021
